# In all, about 33,000 sequences were measured (“E-score (-0.5 to 0.5)”: median about -0.0034, highest 2% from about 0.25 on). The list shows a part of the results.
# Target: T1, Yap3 (UniProt P38749)
# T1 sequence: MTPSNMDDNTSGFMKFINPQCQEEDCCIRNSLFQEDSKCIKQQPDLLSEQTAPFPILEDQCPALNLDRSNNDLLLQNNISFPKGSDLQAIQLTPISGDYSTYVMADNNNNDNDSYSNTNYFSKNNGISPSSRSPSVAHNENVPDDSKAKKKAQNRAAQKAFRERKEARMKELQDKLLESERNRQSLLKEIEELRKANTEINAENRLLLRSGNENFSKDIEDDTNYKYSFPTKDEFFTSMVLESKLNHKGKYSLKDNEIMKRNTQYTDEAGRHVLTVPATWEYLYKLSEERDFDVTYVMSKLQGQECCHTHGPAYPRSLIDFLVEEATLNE
# Assay: PBM E-score (8-mer binding enrichment) (E-score (-0.5 to 0.5)); higher = stronger / more preferred TF binding
# Details: protein concentration: 100 nM; construct: GST-full length
# How it was run: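 The E-score, a modified Wilcoxon-Mann-Whitney statistic, was computed by the Universal PBM Analysis Suite for every ungapped eight-base word pooled with its reverse complement. Scans behind it were normalised with masliner after bound GST-tagged yeast transcription factors were detected with fluorescent anti-GST. The proteins, at about 100-200 nM, had been applied to universal all-10-mer Agilent arrays made double-stranded by primer extension.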
row,Sequence,PBM E-score
1,CACAGAAA,0.0474
2,CGTTGTGA,-0.0712
3,GTAGGAAC,0.0852
4,GAATACCA,0.0621
5,AAAGGGGC,-0.159
6,AAGCCGGG,-0.0754
7,TCCCTACA,0.00164
8,AACGGCAA,0.107
9,CGCGTAAA,0.255
10,GCGACCAA,0.174
11,CTCCCCAG,-0.313
12,ATGTGTTA,0.2
13,TAGGTGAA,0.0839
14,TCTCTTCA,0.0113
15,AAAGCCTA,0.0182
16,AGTCTCGC,0.0823
17,CTAGGGCA,-0.311
18,ACCCTAAG,-0.0271
19,CATTCATA,0.223
20,CTTGGTGC,-0.023
21,ATGCATAA,0.117
22,CCTGCACA,-0.217
23,CCCGGTAC,-0.209
24,GAATCCTA,0.0752
25,ATGCATCC,-0.0745

row,Sequence,PBM E-score
1,AGTCCAAT,0.0871
2,TCAACACA,0.202
3,CTCAATAA,-0.0772
4,GTAGTCCA,-0.0936
5,CTCCTCAC,-0.171
6,GCTATCGA,0.0538
7,AGGGCACG,-0.14
8,AAAGGGTC,-0.106
9,TACCGTAA,0.205
10,GCGCGGCA,0.0466
11,CATCTTTA,0.0257
12,AAAATTAT,0.257
13,ACATGGAT,0.0692
14,AACTGCGT,-0.0561
15,ATAGTCCC,-0.0825
16,AACGACAC,0.121
17,ATCCGGAA,0.0743
18,ACCCTCTA,-0.174
19,GATGAACA,0.0368
20,CTTGTTTC,0.174
21,ATCTTCAT,0.139
22,CCTCGGAA,0.105
23,ACTCATAG,0.0366
24,GCTTAGCA,-0.0606
25,CAAGCGAC,0.0322

row,Sequence,PBM E-score
1,CCTCGTGC,-0.0823
2,CTAGCCCC,-0.155
3,ATCAGAGC,0.149
4,AACGATAG,0.116
5,ATACGTTA,0.0384
6,GCACTAGA,-0.0688
7,CTTTTCAC,0.171
8,CTGATTAA,0.203
9,AATATGCC,-0.138
10,CTTGGTAC,0.172
11,GGGACTAC,-0.117
12,CAATGCAC,-0.0637
13,CGAGCGGA,-0.0731
14,CAGTAATA,0.307
15,ATTTGTTA,0.166
16,GAGATTAA,0.155
17,ACGGGCAG,0.0291
18,CCACAGTA,0.0572
19,CATTAATG,0.212
20,AGAGGCTC,-0.2
21,AAATTGCT,0.0524
22,CGCAGCAA,-0.143
23,AAGTACAG,0.038
24,CCTGGGTC,-0.242
25,AGTTGATG,0.142

# Fetched one by one from the entries so far:
row,Sequence,PBM E-score
8,CTGATTAA,0.203
7,CTTTTCAC,0.171
14,CAGTAATA,0.307
24,CCTGGGTC,-0.242
16,GAGATTAA,0.155
12,CAATGCAC,-0.0637

# Next records follow.

row,Sequence,PBM E-score
1,ATCTGAAG,-0.0861
2,AATCGTTC,0.0879
3,ATCTTATC,0.11
4,CGTCCAAG,-0.0403
5,TGTCTAAA,0.148
6,ACCCACAC,0.0424
7,ATCCCAAG,-0.0397
8,GGGCGCTA,-0.249
9,CATAGATG,-0.138
10,GGAGAGCA,-0.156
11,GAGGGCGC,-0.238
12,GAGTTAAA,0.0783
13,GGAAGGAC,-0.238
14,GACGCAGA,0.0272
15,CGTGGAGC,0.00438
16,CAGGAATG,-0.102
17,ATCCGTAA,0.0684
18,ACAAGGCG,-0.0349
19,TCGCGCAA,0.209
20,TTAAATAA,0.155
21,GGATAGGA,0.149
22,ACTTGGAT,0.184
23,TGAGTAAA,0.161
24,GAGCAGAA,-0.0517
25,CGCGCCTA,0.16

row,Sequence,PBM E-score
1,CATGGTCG,-0.152
2,GGCAACCC,-0.255
3,CCTAAGAC,-0.162
4,AGGCGGCA,-0.238
5,AACTCGGG,-0.175
6,ACCCGCGA,0.124
7,AGATGTCG,-0.0538
8,AGTTGTCG,0.0191
9,ACTATGCT,0.141
10,GAAATGGA,0.139
11,CAACACTA,0.159
12,AACACATT,0.154
13,TATCAGAA,0.0756
14,CTGCAGTC,-0.091
15,TCCGACCA,-0.0892
16,AATATAGT,0.223
17,ATATGAAA,0.234
18,ATAATTGG,0.165
19,GTATTATA,0.329
20,AGACTATG,-0.0546
21,ATAACCGG,-0.0881
22,ATGAGTTC,-0.0426
23,TGGTAACA,0.109
24,GAAAACGA,0.00196
25,CTCAGAGC,-0.152

row,Sequence,PBM E-score
1,AAAAAAAT,0.226
2,GAGAAAAC,-0.00454
3,AGAGTAGC,-0.168
4,AAATTACC,0.235
5,ACTTAAGA,0.0692
6,CCGTCTGA,-0.0809
7,CCGTTTGA,-0.087
8,GTGCGGCA,-0.0567
9,ACAATAGC,-0.017
10,ACGGTATA,0.0307
11,GAGGGAAC,-0.154
12,GAGGTAAA,-0.0475
13,AACGTGTC,-0.0769
14,GGAGAGCC,-0.234
15,TCAGGAGA,0.11
16,CCGTAACG,-0.137
17,GGAACAAC,0.157
18,CCGCTCAC,-0.123
19,GCTTACAC,-0.0515
20,ACGTTGGG,-0.0761
21,ATCCTGCC,-0.0423
22,CCATGAAG,-0.22
23,ATAGACGA,0.192
24,AAGTGAAA,0.197
25,ACTATTGC,0.083

row,Sequence,PBM E-score
1,CTACAACA,0.0611
2,GCGCACTA,0.107
3,GCGCGCCC,-0.129
4,CGATGACA,0.134
5,CTGGCGGA,-0.231
6,AGGATGTC,-0.0743
7,GAAACATA,0.203
8,AGTTCAGA,-0.0786
9,CGCTCACA,-0.0758
10,AGGACCTG,-0.234
11,ATCAGCTA,0.0675
12,CTAGCCCA,-0.156
13,ACACGGAT,0.105
14,CGAGTGTA,-0.0629
15,CGCGAGTC,-0.101
16,CACCGCCC,-0.14
17,CTTGCTGA,-0.018
18,CCTATAGG,-0.221
19,AAGCTTCA,-0.0747
20,ACAATACT,0.237
21,CTAGGACA,0.0746
22,AACGTTGC,0.0725

# — the supplement of paper PMC3334620
